Test results as given in paper PMC5727492.
Construct, isoform or probe ends are uncertain for at least one entry. Weaker means in comparison with the reference protein, sequence or condition of that experiment. Where a protein sequence is shown, tags need not be part of it.

Target: T1, McMYB10 (UniProt W5S2D4)
T1 sequence (looked up, limits assumed): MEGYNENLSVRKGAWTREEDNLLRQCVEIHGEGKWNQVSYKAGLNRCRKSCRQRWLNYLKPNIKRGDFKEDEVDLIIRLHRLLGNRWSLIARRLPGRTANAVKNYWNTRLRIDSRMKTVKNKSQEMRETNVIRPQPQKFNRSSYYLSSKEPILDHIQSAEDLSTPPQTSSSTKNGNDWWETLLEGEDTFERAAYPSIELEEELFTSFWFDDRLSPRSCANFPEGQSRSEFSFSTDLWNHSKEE
Assay: EMSA
Conditions: 100x unlabeled probe competes, LightShift Chemiluminescent EMSA Kit per manufacturer's protocol, about 10 ug purified McMYB10 per reaction, pH and temperature not stated, recombinant protein, protein details: MBP (pMAL-C2X), label: biotin

Sequence	binding result (stronger than MYB1LEPR)	binding result (bound, but weaker than the other three probes)
AATATATTTATGGATAAATTATGATTA (double strand) [MYBST1 probe]	binds	
CAGAATTGAAAAACTAACATTTTAATGTG (double strand) [MYB1LEPR probe]		binds more weakly
GTTGAGCAGGTAACAAATGAAGTCAAG (double strand) [MYBGAHV probe]	binds	
TTATTATTATCTATAACCATTACTATTTATC (double strand) [MYB1AT probe]	binds	
